# Assay results published in article PMC5703968.
# By UniProt entry, the sequences of proteins in these tests, tags left out.
# UniProt Q4QRB4: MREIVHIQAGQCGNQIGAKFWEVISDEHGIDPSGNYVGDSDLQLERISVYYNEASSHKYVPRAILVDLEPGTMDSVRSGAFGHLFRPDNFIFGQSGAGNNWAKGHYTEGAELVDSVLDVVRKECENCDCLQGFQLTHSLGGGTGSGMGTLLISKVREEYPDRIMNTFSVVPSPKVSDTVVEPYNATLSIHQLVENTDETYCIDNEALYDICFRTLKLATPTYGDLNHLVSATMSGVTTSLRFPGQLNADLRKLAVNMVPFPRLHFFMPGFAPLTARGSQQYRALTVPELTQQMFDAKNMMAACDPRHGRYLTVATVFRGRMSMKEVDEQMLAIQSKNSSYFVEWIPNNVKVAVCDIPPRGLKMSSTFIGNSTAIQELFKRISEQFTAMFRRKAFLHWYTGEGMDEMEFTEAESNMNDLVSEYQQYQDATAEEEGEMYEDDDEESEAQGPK
# UniProt Q63544: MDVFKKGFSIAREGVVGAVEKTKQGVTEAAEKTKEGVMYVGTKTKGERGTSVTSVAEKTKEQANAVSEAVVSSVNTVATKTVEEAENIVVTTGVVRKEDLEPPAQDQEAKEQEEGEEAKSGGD
# No constants are given. Whether binding was seen depends on the method and setting. In cells and extracts the contact can be indirect. Some entries that bind do so weakly or less than the wild type.
# Biological target: βIII-tubulin (endogenous, rat femoral nerve) (rat (endogenous in femoral nerve)) (UniProt Q4QRB4)
# Experiment: co-IP; biotinylated anti-βIII-tubulin antibody on streptavidin agarose; lysate of ligated rat femoral nerve; co-precipitates examined by Western blotting with anti-αSyn and anti-γSyn
substance,measurement,value
"γ-synuclein (endogenous, rat femoral nerve) (from UniProt Q63544 1-123)",binding,binds
